Measurements from publication PMC7407560.
Results are given in words; binding and its absence hold for the method and conditions named. In cells and extracts the contact can be indirect. A yes stands for co-enrichment or nearness to the bait. Other partners may have been found.

The chains behind the UniProt entries cited, without tags or fusion partners. Residues count along the entry.
UniProt Q08345, residues 19-913: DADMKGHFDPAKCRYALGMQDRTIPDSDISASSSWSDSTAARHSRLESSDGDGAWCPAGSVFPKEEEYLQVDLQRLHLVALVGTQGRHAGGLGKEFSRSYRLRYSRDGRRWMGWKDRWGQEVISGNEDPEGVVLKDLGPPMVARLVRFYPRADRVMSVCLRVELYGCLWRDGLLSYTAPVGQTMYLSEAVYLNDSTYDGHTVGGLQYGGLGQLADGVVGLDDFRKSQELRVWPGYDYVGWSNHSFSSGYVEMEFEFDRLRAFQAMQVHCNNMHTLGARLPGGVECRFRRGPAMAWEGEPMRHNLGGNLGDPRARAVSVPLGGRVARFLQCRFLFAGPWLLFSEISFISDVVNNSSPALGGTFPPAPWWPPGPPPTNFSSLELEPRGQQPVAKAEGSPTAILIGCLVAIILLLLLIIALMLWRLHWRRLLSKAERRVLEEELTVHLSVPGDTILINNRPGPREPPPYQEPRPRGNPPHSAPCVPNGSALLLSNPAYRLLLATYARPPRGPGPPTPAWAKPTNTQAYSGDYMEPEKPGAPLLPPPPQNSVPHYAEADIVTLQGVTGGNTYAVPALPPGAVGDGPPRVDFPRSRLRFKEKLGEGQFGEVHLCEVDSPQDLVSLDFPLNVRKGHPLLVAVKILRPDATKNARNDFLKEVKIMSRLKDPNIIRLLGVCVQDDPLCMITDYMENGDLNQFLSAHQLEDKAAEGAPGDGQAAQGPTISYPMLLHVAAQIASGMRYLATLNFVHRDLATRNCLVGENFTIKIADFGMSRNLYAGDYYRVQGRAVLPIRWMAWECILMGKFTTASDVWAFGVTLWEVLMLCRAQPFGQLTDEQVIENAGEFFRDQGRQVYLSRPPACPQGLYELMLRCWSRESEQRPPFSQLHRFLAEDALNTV
UniProt P97434: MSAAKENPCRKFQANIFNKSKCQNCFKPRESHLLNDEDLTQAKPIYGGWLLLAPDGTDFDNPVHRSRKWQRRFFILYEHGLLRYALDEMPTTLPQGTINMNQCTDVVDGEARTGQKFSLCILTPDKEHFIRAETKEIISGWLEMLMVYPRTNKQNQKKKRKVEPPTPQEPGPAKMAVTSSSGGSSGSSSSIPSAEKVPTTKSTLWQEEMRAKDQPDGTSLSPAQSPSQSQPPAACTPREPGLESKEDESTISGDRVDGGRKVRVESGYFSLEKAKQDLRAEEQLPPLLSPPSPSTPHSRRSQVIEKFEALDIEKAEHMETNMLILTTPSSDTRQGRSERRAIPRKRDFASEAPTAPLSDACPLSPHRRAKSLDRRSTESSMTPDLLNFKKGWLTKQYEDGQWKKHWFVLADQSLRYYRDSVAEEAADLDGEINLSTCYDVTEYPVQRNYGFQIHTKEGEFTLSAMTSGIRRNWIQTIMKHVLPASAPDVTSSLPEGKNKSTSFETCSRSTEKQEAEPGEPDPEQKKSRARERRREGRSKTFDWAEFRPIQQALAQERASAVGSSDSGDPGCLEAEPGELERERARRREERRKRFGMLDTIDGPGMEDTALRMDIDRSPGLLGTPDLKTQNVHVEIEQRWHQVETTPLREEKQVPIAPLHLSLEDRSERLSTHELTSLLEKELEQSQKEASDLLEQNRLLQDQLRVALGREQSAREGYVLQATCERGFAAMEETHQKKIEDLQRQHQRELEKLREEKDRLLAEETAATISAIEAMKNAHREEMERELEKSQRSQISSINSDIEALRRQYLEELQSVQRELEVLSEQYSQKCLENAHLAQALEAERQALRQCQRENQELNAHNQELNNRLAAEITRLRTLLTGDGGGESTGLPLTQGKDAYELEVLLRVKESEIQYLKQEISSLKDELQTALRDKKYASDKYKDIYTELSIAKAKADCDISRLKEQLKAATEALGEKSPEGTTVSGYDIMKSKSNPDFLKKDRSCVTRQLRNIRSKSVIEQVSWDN

Target: DDR1 (b-isoform) stably overexpressed in GD25 cells (GD25 OE) (UniProt Q08345)
Test: affinity purification with mass spectrometry; DDR1 immunoprecipitated with a C-terminal anti-DDR1 antibody on DynaBeads from lysates of GD25 WT and GD25 OE cells plated on collagen or fibronectin for 1 or 8 h; TMT-labelled, LC-MS/MS

- binding: binds
Substance: myosin phosphatase Rho-interacting protein (MRIP) (from UniProt P97434 1-1024)
